Entries after “also recorded” stand apart in the source; their conditions may differ. At least one compound was matched to its structure with a doubt left.
Experiments:
[1] = target: T1, BTK (Homo sapiens, UniProt Q06187); test: BTK degradation and anti-tumor activity in preclinical models; type: in vivo; parameters: host or cells: preclinical models (not described)
[2] = target: T1, BTK; test: BTK degradation in TMD8 cells; type: cell-based; parameters: endogenous in cells; host or cells: TMD8 (human DLBCL cell line); settings: TMD8 cells (human DLBCL cell line)
[3] = system: BTK; test: BTK degradation in patients, clinical trial of oral dosing; type: in vivo, human
[4] = system: Ikaros and Aiolos; test: Ikaros and Aiolos degradation in preclinical models; type: in vivo; settings: therapeutic doses
[5] = system: arthritis; test: Arthritis model, clinical arthritis score and body weight; type: in vivo, mice; settings: daily oral treatment at 30 mg/kg
Experimental: Significance of clinical arthritis score (A) was determined from the area under the curve (AUC) of mean paw scores calculated for individual mice. (C) Serum levels of anti-type II collagen IgG. Statistical significance was determined between vehicle control and treated groups with one-way Kruskal-Wallis ANOVA and Dunn's multiple comparisons test.

Protein sequences, listed by entry. Tags and fused reporters are not part of them. Lines headed by an entry give the natural chain unless they say otherwise; changes in a name come on top.
UniProt Q06187, whole entry, species assumed: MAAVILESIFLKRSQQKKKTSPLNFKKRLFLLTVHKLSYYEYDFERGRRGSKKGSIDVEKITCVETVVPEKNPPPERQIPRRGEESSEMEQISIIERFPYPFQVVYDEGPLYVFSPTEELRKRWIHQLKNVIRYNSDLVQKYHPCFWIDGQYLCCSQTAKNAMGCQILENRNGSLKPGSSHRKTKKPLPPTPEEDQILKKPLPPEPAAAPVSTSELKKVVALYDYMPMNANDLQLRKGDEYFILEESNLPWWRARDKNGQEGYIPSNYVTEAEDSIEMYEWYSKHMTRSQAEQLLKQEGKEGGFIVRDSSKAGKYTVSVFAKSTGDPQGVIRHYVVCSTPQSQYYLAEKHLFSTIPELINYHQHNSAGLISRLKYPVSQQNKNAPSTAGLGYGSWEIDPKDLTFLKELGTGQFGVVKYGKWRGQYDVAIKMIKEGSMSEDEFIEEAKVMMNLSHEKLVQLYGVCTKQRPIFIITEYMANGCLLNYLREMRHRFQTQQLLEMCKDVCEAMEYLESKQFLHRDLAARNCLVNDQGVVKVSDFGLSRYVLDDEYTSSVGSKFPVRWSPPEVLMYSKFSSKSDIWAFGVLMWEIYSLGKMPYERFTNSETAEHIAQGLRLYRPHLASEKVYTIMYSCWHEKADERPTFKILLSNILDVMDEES
UniProt Q13422: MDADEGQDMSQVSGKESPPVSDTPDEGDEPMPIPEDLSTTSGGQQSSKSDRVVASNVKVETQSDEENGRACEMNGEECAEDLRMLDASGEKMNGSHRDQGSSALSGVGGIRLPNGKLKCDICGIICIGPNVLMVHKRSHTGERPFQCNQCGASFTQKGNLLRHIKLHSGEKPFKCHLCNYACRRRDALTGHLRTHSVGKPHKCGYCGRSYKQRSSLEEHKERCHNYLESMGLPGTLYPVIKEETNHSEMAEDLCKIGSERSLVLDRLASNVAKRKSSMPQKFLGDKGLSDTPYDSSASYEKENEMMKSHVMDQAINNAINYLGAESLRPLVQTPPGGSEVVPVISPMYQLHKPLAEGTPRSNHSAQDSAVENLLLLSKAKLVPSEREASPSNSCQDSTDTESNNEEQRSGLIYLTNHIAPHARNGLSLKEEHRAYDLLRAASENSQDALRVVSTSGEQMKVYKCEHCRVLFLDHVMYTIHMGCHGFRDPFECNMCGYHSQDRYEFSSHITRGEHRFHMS
UniProt Q96SW2: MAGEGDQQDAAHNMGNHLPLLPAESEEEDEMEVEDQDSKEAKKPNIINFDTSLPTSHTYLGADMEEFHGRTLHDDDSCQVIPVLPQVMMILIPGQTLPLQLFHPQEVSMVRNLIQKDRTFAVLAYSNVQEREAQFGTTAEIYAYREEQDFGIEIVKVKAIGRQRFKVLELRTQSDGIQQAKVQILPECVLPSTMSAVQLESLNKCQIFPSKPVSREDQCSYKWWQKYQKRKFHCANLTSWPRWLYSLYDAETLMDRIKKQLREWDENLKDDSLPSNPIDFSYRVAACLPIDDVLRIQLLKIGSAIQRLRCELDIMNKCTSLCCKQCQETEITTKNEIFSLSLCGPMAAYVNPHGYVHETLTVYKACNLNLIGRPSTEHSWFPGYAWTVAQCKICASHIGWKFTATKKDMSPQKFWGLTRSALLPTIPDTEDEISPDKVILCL

[6] = system: REC-1 human mantel cell line; test: Viability of REC-1 human mantle cell line; type: cell-based; settings: REC-1 cells, concentration-dependent; compared to comparator compound, ibrutinib, acalabrutinib, pomalidomide, lenalidomide
[7] = target: T2, Ikaros (Homo sapiens, UniProt Q13422+Q96SW2); test: Ikaros degradation in patient PBMCs, Western blot (Jess Simple Western); type: in vivo; settings: Cycle 1 Day 8 vs baseline
T2 construct: from tissue; host or cells: patient PBMCs, lysed after in vivo dosing
Experimental: Frozen patient PBMCs collected at baseline and at Cycle 1 Day 8 were processed into protein lysate and degradation of cereblon neo-substrate Ikaros was determined using Western blot via Jess™ Simple Western automated system. […] Patients receiving 300 mg Compound 5, 75.2-95.7% Ikaros degradation was detected.
Frozen PBMCs from patients were prepared and Ikaros protein levels were assessed using Western blot via Jess™ Simple Western automated system.
FIG. 7A, densitometric analysis of Ikaros degradation in all patients were obtained after normalization to β-actin and % Ikaros degradation was calculated relative to Baseline values from each patient.
For Ikaros degradation assessment, patient PBMCs were lysed in lysis buffer RIPA buffer (Fisher, PI89901), complete Mini EDTA-free protease inhibitor (Sigma 11836170001), Protease Inhibitor Cocktail (Sigma, P2714) and Phosphatase Inhibitor Cocktail 2 and 3 (Sigma, P5726 and P0044) and stored overnight at −80° C. Cells were then thawed and centrifuged for 5 min at 8000×g and lysate supernatants were transferred to a fresh tube. Protein levels were determined by BCA Assay performed according to manufacturer's protocol (EMD Millipore, cat. no. 71285-3). A total of 3 μg protein was loaded and 1:50 dilution of primary anti-Ikaros (Cell Signaling Technology, cat. 14859) and 1:50 anti-β-Actin (Cell Signaling Technology, cat. 8457) was used. […]

[8] = system: Ibrutinib-resistant tumor cell lines (BTK-C481); test: Activity against ibrutinib-resistant tumor cell lines; type: cell-based; settings: BTK-C481 mutations

## NC(=O)c1ncc(N2CCCCC2)nc1Nc1ccc(C2CCN(C[C@@H]3CCN(c4ccc5c(c4)C(=O)N(C4CCC(=O)NC4=O)C5=O)C3)CC2)cc1 (stereo partly drawn) [Compound 5]
[1]
  anti-tumor activity: potent anti-tumor activity
[2]
  BTK degradation: degrades both BTK and immunomodulatory cereblon neosubstrate Aiolos; also recorded: potently degrades BTK
[3]; achieved by day 15
  BTK degradation in patients with CLL: rapid and sustained degradation of BTK
[3]; all dose levels and malignancies
  BTK degradation in patients: robust BTK degradation
[4]
  Ikaros and Aiolos degradation: achieve target ranges at therapeutic doses
[5]
  mean arthritis score / clinical benefit: lower mean arthritis score than ibrutinib
[6]
  loss of viability: strong loss of viability; also recorded: significantly more pronounced
[7]
  Ikaros degradation: greater Ikaros degradation; also recorded: detected in all patients
[8]
  activity against ibrutinib-resistant tumor cell lines: active against Ibrutinib-resistant tumor cell lines

Source: patent US20250017922A1, “BIFUNCTIONAL COMPOUNDS FOR DEGRADING BTK WITH ENHANCED IMID ACTIVITY” (NURIX THERAPEUTICS, INC., priority 2021, published 2025)
